Results taken from article PMC7062751.
The exact form of at least one protein or probe is not confirmed. At least one verdict rests on a figure or table, not on a statement of the authors. Protein sequences can lack the tags named with them.

Target: T1, TEX264 (deltaLRR, TEX264WT) (Homo sapiens) (UniProt Q9Y6I9)
T1 sequence (looked up): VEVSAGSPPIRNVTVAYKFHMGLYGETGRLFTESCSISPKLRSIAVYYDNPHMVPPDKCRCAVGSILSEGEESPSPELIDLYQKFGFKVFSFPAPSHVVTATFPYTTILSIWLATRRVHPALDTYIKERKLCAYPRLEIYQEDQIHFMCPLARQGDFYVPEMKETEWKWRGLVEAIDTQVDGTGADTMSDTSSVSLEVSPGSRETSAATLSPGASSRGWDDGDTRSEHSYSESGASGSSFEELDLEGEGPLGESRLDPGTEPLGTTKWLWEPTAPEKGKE
Assay: EMSA
Conditions: 150 mM NaCl, 10 mM Tris-HCl pH 7.5, 0.1 mM EDTA, 15% glycerol, 15 min at 37 °C, 0.5% agarose gel in TBE at 4 °C, recombinant protein, residues 34-313, protein details: C-terminal His

Row | Sequence | binding result (label: 5' IRDye800 on strand 1) | binding result (label: 5' IRDye800, single-stranded DNA)
1 | ATTCGATCGGGGCGGGGCGAGC (double strand) [Sp1 consensus probe, double-stranded] | binds | 
2 | ATTCGATCGGGGCGGGGCGAGC [Sp1 consensus probe, single-stranded] |  | binds
